Experimental data from US10632054B2, “Method for hair frizz reduction” (The Procter & Gamble Company, priority 2015, dated 2020).

Assay: Soaking treatment, amount of active penetrated inside the hair
Conditions: pH 4.2, 40 deg C.

O=C(O)c1cc(Cl)ccc1O [5-Chlorosalicylic acid]
mg/g of Cl Salicylic acid (10 min soaking): 19 mg/g
mg/g of Cl Salicylic acid (20 mins soaking): 25 mg/g
mg/g of Cl Salicylic acid (30 mins soaking): 30 mg/g
mg/g of Cl Salicylic acid (1 hr soaking): 32 mg/g
mg/g of Cl Salicylic acid (2 hr soaking): 32.8 mg/g
